In patent US7109213B2, “Aminopiperidine compounds, process for their preparation, and pharmaceutical compositions containing them” (Glaxo Group Limited, priority 2002, dated 2006):
Some results were stated once for a whole list of compounds, not compound by compound.

Key:
Assay in all cases: MIC of test compounds against various organisms
Type in all cases: cell-based
Details in all cases: range stated for all organisms of the panel
E. faecium 8 = test system: E. faecium 8
Excerpt: (§1) The MIC (μg/ml) of test compounds against various organisms may be determined: S. epidermidis CL7, S. aureus WCUH29, S. pneumoniae 1629, S. pyogenes CN10, H. influenzae ATCC49247, E.faecalis 2, E. faecium 8, M. catarrhalis Ravisio, E. coli 7623.

M. catarrhalis Ravisio = test system: M. catarrhalis Ravisio
Excerpt: as §1

H. influenzae ATCC49247 = test system: H. influenzae ATCC49247
Excerpt: as §1

E. coli 7623 = test system: E. coli 7623
Excerpt: as §1

S. pyogenes CN10 = test system: S. pyogenes CN10
Excerpt: as §1

E.faecalis 2 = test system: E.faecalis 2
Excerpt: as §1

S. epidermidis CL7 = test system: S. epidermidis CL7
Excerpt: as §1

S. pneumoniae 1629 = test system: S. pneumoniae 1629
Excerpt: as §1

S. aureus WCUH29 = test system: S. aureus WCUH29
Excerpt: as §1

Measured: MIC

6-[({(3S,4R)-3-fluoro-1-[(R)-2-hydroxy-2-(6-methoxyquinolin-4-yl)-ethyl]piperidin-4-ylamino}methyl)]-[1,2,3]thiadiazolo[5,4-b]pyridine and 6-[({(3R,4S)-3-fluoro-1-[(R)-2-hydroxy-2-(6-methoxyquinolin-4-yl)-ethyl]piperidin-4-ylamino}methyl)]-[1,2,3]thiadiazolo[5,4-b]pyridine [Example 1]
0.06 to 16 µg/mL: E. faecium 8 | M. catarrhalis Ravisio | H. influenzae ATCC49247 | E. coli 7623 | S. pyogenes CN10 | E.faecalis 2 | S. epidermidis CL7 | S. pneumoniae 1629 | S. aureus WCUH29
